## Percent effect of library compounds

The chains behind the UniProt entries cited, without tags or fusion partners. Residues count along the entry.
UniProt Q4DA54, 1-478: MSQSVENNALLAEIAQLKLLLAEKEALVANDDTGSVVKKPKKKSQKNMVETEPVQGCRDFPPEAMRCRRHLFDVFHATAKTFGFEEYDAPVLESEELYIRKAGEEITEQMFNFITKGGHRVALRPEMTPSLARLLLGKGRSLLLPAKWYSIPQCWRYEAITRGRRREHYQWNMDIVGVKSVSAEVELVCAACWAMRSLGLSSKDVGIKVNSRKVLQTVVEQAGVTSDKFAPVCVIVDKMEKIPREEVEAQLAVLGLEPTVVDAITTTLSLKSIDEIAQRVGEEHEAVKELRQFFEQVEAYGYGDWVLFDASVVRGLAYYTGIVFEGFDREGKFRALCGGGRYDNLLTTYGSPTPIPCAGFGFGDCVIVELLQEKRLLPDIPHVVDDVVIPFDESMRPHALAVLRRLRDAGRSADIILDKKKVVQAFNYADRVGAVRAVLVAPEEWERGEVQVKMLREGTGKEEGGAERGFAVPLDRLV
UniProt P9WPC5, whole entry: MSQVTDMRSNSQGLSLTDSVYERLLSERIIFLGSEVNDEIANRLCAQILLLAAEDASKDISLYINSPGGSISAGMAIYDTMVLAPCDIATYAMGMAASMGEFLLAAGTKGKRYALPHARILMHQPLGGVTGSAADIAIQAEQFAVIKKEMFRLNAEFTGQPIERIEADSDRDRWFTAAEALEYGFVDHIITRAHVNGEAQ
UniProt P9WPC3, whole entry partner: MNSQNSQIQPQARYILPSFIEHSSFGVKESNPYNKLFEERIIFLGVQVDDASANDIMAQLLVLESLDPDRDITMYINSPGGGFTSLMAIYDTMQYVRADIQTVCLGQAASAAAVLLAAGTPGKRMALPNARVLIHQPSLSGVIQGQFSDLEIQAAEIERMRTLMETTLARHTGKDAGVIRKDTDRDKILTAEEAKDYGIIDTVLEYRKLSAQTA
UniProt Q8IDJ8, 1-583: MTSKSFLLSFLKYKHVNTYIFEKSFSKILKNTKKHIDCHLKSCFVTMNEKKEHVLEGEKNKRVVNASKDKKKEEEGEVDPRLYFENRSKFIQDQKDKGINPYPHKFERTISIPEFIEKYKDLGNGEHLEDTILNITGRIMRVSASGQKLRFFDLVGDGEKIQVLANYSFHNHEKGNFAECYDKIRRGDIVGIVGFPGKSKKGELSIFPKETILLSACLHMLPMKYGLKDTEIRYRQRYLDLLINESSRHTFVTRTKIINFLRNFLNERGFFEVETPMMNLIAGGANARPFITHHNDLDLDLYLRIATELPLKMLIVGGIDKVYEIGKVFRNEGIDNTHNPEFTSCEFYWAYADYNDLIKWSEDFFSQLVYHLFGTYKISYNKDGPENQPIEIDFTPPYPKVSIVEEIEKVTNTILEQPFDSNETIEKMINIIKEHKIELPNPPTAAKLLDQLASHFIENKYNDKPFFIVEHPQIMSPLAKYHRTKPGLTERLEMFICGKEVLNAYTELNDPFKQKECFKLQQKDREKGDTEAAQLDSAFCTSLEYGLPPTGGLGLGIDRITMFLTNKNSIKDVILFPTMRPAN

Leishmania in macrophages: 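Cell assay of Leishmania donovani living inside macrophages; the read-out is not stated. Tested at 30 µM. Direction is inferred from retests: higher values go with stronger inhibition. Of about 69,000 compounds tested this way, about 1,000 (1.5%) reached 50% or more in at least one test.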
TcHisRS: 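Histidine-tRNA ligase, Trypanosoma cruzi CL Brener (UniProt Q4DA54). Enzyme assay of histidyl-tRNA synthetase; the read-out is not stated. Compounds at 30 µM. Direction is inferred from retests: higher values go with stronger inhibition. Size under these conditions: about 69,000 compounds, about 31 of them at 50% or above in at least one test.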
ClpP1P2: 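ClpP1P2, Mycobacterium tuberculosis (UniProt P9WPC5 and UniProt P9WPC3). Protease assay of ClpP1P2, read by the AMC dye that it sets free. Tested at 50 µM. Direction is inferred from only a few compounds that gave an IC50; most scored high, so higher reads as stronger inhibition. Most other retested compounds had strongly negative values. Of about 69,000 compounds tested this way, about 10 (0.015%) reached 50% or more in at least one test.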
Toxoplasma: 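Assay of Toxoplasma gondii numbers, read through their beta-galactosidase reporter with a colour substrate. Compounds at 10 µM. The record gives no direction; the compounds picked for IC50 retests had high values, so higher reads as fewer parasites. Of about 67,000 compounds tested this way, about 260 (0.38%) reached 50% or more in at least one test.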
PfKRS1: 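Lysine-tRNA ligase, Plasmodium falciparum 3D7 (UniProt Q8IDJ8). Enzyme assay of the cytosolic lysyl-tRNA synthetase in 384-well plates, read by luminescence. Concentration: 30 µM. Direction is inferred from only a few compounds that gave an IC50; most scored high, so higher reads as stronger inhibition. About 69,000 compounds were tested under these conditions; 0.071% (about 49) showed 50% or more at least once.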

Each number is a percent effect as filed.
The record does not define 0% and 100%; most values in the screen are far below 50% and negative numbers occur (in some assays of this library far below -100).
The compounds are a random part of those screened.
A dash means the value is not listed here; it may have been measured.

| # | SMILES | Leishmania in macrophages | TcHisRS | ClpP1P2 | Toxoplasma | PfKRS1 |
|---|---|---|---|---|---|---|
| 1 | `CN(C)CCO[C@@H]1CC[C@H]2[C@H]1OCCN2C(=O)COc1ccccc1` | - | 1.657 | 8.703 | - | 1.036 |
| 2 | `O=C(CN1CC(n2cccn2)C1)NCCCN1CCCC1=O` | -2.614 | 9.884 | 6.111 | -3.616 | 5.727 |
| 3 | `Brc1cnc(NCCCOCC2CCOC2)nc1` (stereo unspecified) | -48.64 | 9.524 | -7.766 | -11.21 | 1.525 |
| 4 | `O=C(NCCNC1CCCCC1)c1cccs1` | 20.75 | 4.563 | -7.419 | -1.244 | 2.461 |
| 5 | `O=C(c1ccc(Cn2cc(Br)cn2)cc1)N1CCCC1` | 1.839 | -1.587 | 8.443 | 5.347 | -2.261 |
| 6 | `CCc1noc(CN(Cc2ccc3c(c2)OCO3)C2CCCC2)n1` | -1.973 | 2.907 | 1.313 | -0.1142 | 1.777 |
| 7 | `CCCOCC(=O)N1CCC2(CC1)c1nc[nH]c1CCN2S(C)(=O)=O` | 18.6 | 0 | 0.9751 | 5.184 | 1.712 |
| 8 | `CCOC1CCCN(C(=O)CCOc2ccc(C)cc2OC)C1` (stereo unspecified) | 7.57 | 1.327 | 13.96 | 11.09 | 2.186 |
| 9 | `C=Cn1ncc(CN2CCC(c3ncc(Cl)cc3S(C)(=O)=O)CC2)c1C` | -24.84 | 3.39 | -5.109 | 27.07 | -1.376 |
| 10 | `CN(CCNC(=O)NCc1ccncc1)C1CCCC1` | 10.98 | 1.504 | -3.402 | -1.206 | -3.757 |
| 11 | `CN(Cc1ccc2nonc2c1)C(=O)c1ccc(C2CCCO2)s1` (stereo unspecified) | -18.25 | 7.895 | -6.035 | 8.105 | -0.3976 |
| 12 | `O=C(O)C(F)(F)F.O=C(O)C(F)(F)F.c1cncc(N2CCOCC3(CN(Cc4cccs4)CCO3)C2)c1` (stereo unspecified) | 18.21 | - | - | -26.2 | - |
| 13 | `Cc1ccc(N2CC3(COCCN(Cc4nccs4)C3)OCC2=O)s1.O=C(O)C(F)(F)F` (stereo unspecified) | -19.12 | - | - | -0.6652 | - |
| 14 | `CN(Cc1ccon1)C(=O)CN1C(=O)OC(C)(C)C1=O` | 27.86 | 2.174 | -4.261 | 0.976 | -0.3444 |
| 15 | `Cc1ccc(N2CCCC(N(C)Cc3cc(C)no3)C2)nn1` (stereo unspecified) | 20.7 | 7.054 | -15.25 | -14.98 | -0.2447 |
| 16 | `COc1cccc(CC(=O)N2Cc3nccn3CC(CN(C)C)C2)c1` (stereo unspecified) | 20.12 | 7.035 | -9.01 | -14.45 | 2.834 |
| 17 | `O=C(c1ccccn1)N1C[C@@H]2CC[C@H](C1)N(C(=O)CCC1CCCC1)C2` | - | -0.5025 | -11.58 | - | 5.65 |
| 18 | `CCOC(=O)CNC(=O)N1CCC(OC)c2ccccc2N(C)C(=O)C1` (stereo unspecified) | 3.22 | 8.989 | 0.5907 | -18.24 | 3.928 |
| 19 | `CC[C@@H](C)[C@H](NC(=O)NC1CCS(=O)(=O)C1)C(=O)NCc1ccncc1` (stereo partly specified) | -5.4 | 0.5848 | 6.294 | 0.2282 | -2.74 |
| 20 | `CN1CC2(CCCN(Cc3ccc(Oc4ccccc4)cc3)C2)OC1=O` (stereo unspecified) | -3.754 | 14.14 | 29.29 | 13.7 | 4.951 |
| 21 | `CCN(CCC#N)Cn1ncc2cn(-c3ccccc3)nc2c1=O` | 35.41 | -0.5348 | 9.608 | 1.186 | -0.9609 |
| 22 | `Cc1c(Br)cccc1C(=O)NCCC1CCCNC1.Cl` (stereo unspecified) | -14.41 | - | - | 2.717 | - |
| 23 | `NC(=O)C1CN(C(=O)Nc2cc(Cl)cc(Cl)c2)CCO1` (stereo unspecified) | 33.32 | 2.479 | -8.772 | 8.993 | 2.001 |
| 24 | `CS(=O)(=O)c1ccc(OCCNCc2cccc(O)c2)cc1` | 13.15 | -1.02 | -19.6 | 0.7692 | 2.095 |
| 25 | `CCN1CCC(CNC(=O)Nc2cnn(CC(N)=O)c2)C1` (stereo unspecified) | 7.626 | 6.186 | 7.614 | 17.34 | 4.147 |
| 26 | `Cc1noc(COCC(=O)Nc2ncccc2Br)n1` | 7.556 | 0 | -0.1498 | 5.615 | 5.745 |
| 27 | `CCCC(C#N)NC(=O)CCCOc1cccc(C(C)=O)c1` (stereo unspecified) | -12.81 | -0.6024 | -8.642 | 3.995 | -5.459 |
| 28 | `Cc1nc(C)n(CC2CCCN2Cc2ncc(C(C)(C)C)o2)n1` (stereo unspecified) | 10.88 | 8.621 | -11.25 | 18.84 | -0.8959 |
| 29 | `N#CC(NC(=O)CCC1CCC1)c1cnn(-c2ccccc2)c1` (stereo unspecified) | -4.835 | -1.235 | -8.572 | -6.023 | 5.569 |
| 30 | `[H][C@@]12CS(=O)(=O)C[C@]1([H])N(C(=O)COc1ccccc1)CCN2CC=C(C)C` | 36.34 | - | - | 0.1729 | - |
| 31 | `CCN1CCN(c2ccc(C(=O)NC(C)c3ccncc3)cc2)CC1` (stereo unspecified) | 21.9 | 8.333 | -5.629 | -0.1588 | 3.947 |
| 32 | `CC(=O)N(C)CC(=O)NCC1(c2cccc(C)c2)CCCC1` | 14.42 | 7.65 | -0.9126 | 7.97 | 1.49 |
| 33 | `[H][C@]12CC[C@]([H])(CN(C(=O)c3ccccn3)C1)N(C(=O)CCC(F)(F)F)C2` | -25.33 | - | - | -2.109 | - |
| 34 | `CS(=O)(=O)N1C[C@@H]2COC[C@]2(CN2CCOCC2)C1` | - | 2.941 | 2.127 | - | 6.344 |
| 35 | `COc1cc(C(=O)NCC2(N(C)C)CCN(C)CC2)c2ccccc2n1` | -29.44 | 2.273 | -8.244 | 20.46 | 0.3821 |
| 36 | `O=C(C1COc2ccccc2C1)N(CCO)Cc1ccccc1` (stereo unspecified) | -26.39 | 4.865 | 4.728 | -13.07 | 7.731 |
| 37 | `COc1ccc(CNC(=O)NCc2ccc(C(N)=O)cc2)cn1` | 20.83 | 11.69 | 8.235 | 7.132 | 6.905 |
| 38 | `COCC1CN(C(=O)CC2=CCCCC2)Cc2nnn(CC3CC3)c21` (stereo unspecified) | 43.23 | 9.278 | -4.555 | -12.37 | 3.727 |
| 39 | `Cc1nccn1CCCC(=O)N1CCC2(CCC(=O)N(C(C)C)C2)CC1` | 25.85 | 8.081 | 6.752 | -10.44 | 4.013 |
| 40 | `COCc1cnc2n1CCN(C(=O)c1ccc3ccccc3n1)C2C.O=C(O)C(F)(F)F` (stereo unspecified) | 11.68 | - | - | 31.94 | - |
| 41 | `CN1CCCC[C@@H]2[C@H]1[C@@H](c1ccccc1)CCN2C(=O)c1ccncc1` | - | 8.511 | 4.585 | - | 4.576 |
| 42 | `[H][C@@]12C[C@H](C(=O)N3CCOCC3)[C@@]([H])(CN(S(=O)(=O)CC(C)C)C1)O2` | -9.01 | - | - | 20.17 | - |
| 43 | `CCc1cc(C(=O)N[C@H]2CN(CCS(C)(=O)=O)C[C@@H]2C2CC2)[nH]n1` | 2.819 | 2.976 | -3.69 | -3.277 | 1.379 |
| 44 | `N#Cc1ccnc(N2CCN(CC(O)c3ccccc3)CC2)c1` (stereo unspecified) | -0.03413 | 4.233 | 2.963 | 2.529 | -1.405 |
| 45 | `Nc1nc(N)c2c(n1)OC1(COCCN(Cc3nccs3)C1)C2` (stereo unspecified) | 19.25 | 10.61 | 26.98 | 5.859 | 3.13 |
| 46 | `Cc1ccsc1CN(Cc1nc2c(cnn2C)c(=O)[nH]1)C(C)C` | 19.44 | 7.918 | -5.029 | -8.998 | -0.1673 |
| 47 | `CN(C)C(=O)CN1CCc2ncnc(N(C)C)c2CC1.O=C(O)C(F)(F)F` | 37.08 | - | - | 5.696 | - |
| 48 | `CCC(CNC(=O)Nc1cnn(CC)c1)N1CCCC1` (stereo unspecified) | 3.5 | 3.008 | -1.75 | - | 14.02 |
| 49 | `CSCCN1CCN(c2nc(N)ncc2C)CC1` | 0.4289 | -13.53 | -7.982 | -28.5 | -1.143 |
| 50 | `CCn1cc2c(n1)CN(CC1CC1)CC2COCC1CC1.O=C(O)C(F)(F)F` (stereo unspecified) | 40.33 | - | - | 1.941 | - |
| 51 | `O=C(O)C(F)(F)F.O=C(O)C(F)(F)F.O=C(O)C(F)(F)F.[H][C@@]12CN(Cc3ccncc3)C[C@]1([H])[C@H](OC)CCN2Cc1cccs1` | 15.08 | - | - | -21.08 | - |
| 52 | `CCC(=O)Nc1nnc2n(Cc3cccc(OC)c3)[nH]c(C)c1-2` | 7.771 | 9.845 | -3.653 | 9.808 | -0.1527 |
| 53 | `O=C(O)C(F)(F)F.O=C(O)C(F)(F)F.[H][C@@]12CCN(Cc3cccc(C#N)c3)C[C@]1([H])[C@@H](CN(C)C(C)C)OC2` | -11.07 | - | - | -6.993 | - |
| 54 | `C[C@@H]1CN(c2nc(O)cc(Cc3ccccc3F)n2)C[C@H](C)O1` | 1.99 | 1.128 | -28.31 | 3.295 | -0.8848 |
| 55 | `CC1CCN(C(=O)CSCc2nc(C3CC3)no2)CC1` | -6.693 | 6.349 | -0.9615 | 8.348 | 0.05733 |
| 56 | `Cc1ccoc1C(=O)NCCOc1ccc(C(F)(F)F)cn1` | -2.975 | 0.5291 | -10.84 | 2.291 | -2.661 |
| 57 | `O=C(CCS(=O)(=O)C1CCCC1)NCCc1cccc(O)c1` | 28.84 | 5.844 | 0.0197 | -4.689 | 4.621 |

Once more, the final 3:

SMILES	Leishmania in macrophages	TcHisRS	ClpP1P2	Toxoplasma	PfKRS1
CC1CCN(C(=O)CSCc2nc(C3CC3)no2)CC1	-6.693	6.349	-0.9615	8.348	0.05733
Cc1ccoc1C(=O)NCCOc1ccc(C(F)(F)F)cn1	-2.975	0.5291	-10.84	2.291	-2.661
O=C(CCS(=O)(=O)C1CCCC1)NCCc1cccc(O)c1	28.84	5.844	0.0197	-4.689	4.621

The values are deposited in ChEMBL (CHEMBL3988442, “University of Dundee, Small-Polar-MMV Screening Library” (2021)).